Weaker means in comparison with the reference protein, sequence or condition of that experiment.
Molecular target: OGG1-dCT del327-345 (human) (UniProt O15527)
Experiment: EMSA
Settings: 2.5 uM DNA, only a portion shifted even at 20 uM protein, 8-oxo-dG at position 18 of strand 1 (text numbers it 17), within unmethylated Cp-8-oxoG, EMSA: 40 mM HEPES pH 7.4, 50 mM NaCl, 5 mM bME, 5% glycerol, 30 min on ice, 4-20% native gel, cryo-EM OGG1-DNA assembly: 20 mM HEPES pH 7.4, 100 mM NaCl, recombinant protein, residues 1-326

Amino acid sequences for entries named in this document (tags omitted). Residues count along the entry.
UniProt O15527, 1-326: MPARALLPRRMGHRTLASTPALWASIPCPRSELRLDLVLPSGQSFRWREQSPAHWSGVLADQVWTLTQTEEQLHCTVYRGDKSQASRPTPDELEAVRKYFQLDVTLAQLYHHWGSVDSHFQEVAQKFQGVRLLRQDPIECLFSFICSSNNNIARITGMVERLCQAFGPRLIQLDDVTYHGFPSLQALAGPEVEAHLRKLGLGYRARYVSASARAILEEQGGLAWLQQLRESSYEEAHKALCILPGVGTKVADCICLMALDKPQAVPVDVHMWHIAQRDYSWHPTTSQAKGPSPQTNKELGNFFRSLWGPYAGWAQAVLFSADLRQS

Sequence: ATGCCTCGCAGAATCCCGCTGCCGAGGCCGCTCAA (double strand) [35-bp 8-oxoG DNA]
- binding result: binds more weakly

From article PMC11438860
